Among the data in article PMC12523365 are binding values, retold here.

Protein sequences, listed by entry. Tags and fused reporters are not part of them.
UniProt Q9Y6R4: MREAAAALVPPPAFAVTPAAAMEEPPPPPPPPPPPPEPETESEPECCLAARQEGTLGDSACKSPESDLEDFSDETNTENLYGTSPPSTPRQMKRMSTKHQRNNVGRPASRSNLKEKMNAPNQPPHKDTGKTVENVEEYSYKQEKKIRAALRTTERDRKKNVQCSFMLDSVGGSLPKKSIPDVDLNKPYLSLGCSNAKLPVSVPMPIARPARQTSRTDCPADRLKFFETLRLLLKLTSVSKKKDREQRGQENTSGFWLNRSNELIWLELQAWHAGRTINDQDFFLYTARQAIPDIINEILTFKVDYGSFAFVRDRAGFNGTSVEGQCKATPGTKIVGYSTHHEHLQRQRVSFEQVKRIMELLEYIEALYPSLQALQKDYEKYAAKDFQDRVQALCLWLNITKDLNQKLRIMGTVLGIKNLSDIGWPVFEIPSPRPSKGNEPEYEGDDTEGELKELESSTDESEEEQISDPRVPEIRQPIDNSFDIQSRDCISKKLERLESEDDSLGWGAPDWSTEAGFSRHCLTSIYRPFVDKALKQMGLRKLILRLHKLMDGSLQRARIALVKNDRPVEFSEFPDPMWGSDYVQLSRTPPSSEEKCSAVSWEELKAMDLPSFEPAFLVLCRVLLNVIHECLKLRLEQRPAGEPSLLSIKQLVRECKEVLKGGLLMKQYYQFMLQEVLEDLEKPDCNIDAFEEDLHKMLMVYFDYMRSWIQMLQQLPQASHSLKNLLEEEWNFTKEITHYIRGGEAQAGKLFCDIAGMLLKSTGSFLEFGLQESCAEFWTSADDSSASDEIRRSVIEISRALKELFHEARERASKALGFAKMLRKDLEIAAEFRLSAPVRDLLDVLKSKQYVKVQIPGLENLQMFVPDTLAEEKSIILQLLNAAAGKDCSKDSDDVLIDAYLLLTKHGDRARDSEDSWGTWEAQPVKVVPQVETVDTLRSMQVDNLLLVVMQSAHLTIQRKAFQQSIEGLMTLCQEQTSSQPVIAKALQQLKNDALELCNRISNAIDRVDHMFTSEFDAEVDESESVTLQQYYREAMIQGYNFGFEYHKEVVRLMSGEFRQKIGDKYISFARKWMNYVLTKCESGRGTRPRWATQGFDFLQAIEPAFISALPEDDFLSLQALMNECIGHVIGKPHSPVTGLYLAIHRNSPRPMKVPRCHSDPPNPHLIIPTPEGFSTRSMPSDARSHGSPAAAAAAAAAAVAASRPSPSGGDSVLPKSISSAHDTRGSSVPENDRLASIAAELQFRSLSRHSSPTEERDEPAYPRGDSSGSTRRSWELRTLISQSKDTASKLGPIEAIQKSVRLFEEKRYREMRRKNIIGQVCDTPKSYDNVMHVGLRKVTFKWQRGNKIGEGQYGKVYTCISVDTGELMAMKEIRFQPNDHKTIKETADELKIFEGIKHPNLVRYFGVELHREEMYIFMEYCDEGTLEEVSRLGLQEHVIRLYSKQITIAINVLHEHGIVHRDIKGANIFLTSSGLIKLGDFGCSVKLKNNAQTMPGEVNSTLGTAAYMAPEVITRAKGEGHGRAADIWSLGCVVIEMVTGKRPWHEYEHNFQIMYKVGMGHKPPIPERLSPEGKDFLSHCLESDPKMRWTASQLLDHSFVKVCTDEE

The target in experiment [1] is T1, Growth arrest and DNA damage protein 45 beta (Gadd45B), 3xFLAG-tagged (human) (UniProt O75293).
T1 sequence: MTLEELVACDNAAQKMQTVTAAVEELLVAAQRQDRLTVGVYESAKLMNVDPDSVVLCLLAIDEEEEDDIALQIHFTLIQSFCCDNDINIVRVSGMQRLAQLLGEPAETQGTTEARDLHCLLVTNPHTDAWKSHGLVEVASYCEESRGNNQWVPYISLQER
Kind of experiment: affinity purification with mass spectrometry; anti-Flag agarose immunoprecipitation from TPC-1 and Bcpap cells stably overexpressing Flag-Gadd45B; eluates on SDS-PAGE, silver staining, bands excised, in-gel trypsin digestion, nano-LC-MS/MS.

Experiment [2] addresses T1, Growth arrest and DNA damage protein 45 beta (Gadd45B), 3xFLAG-tagged (human). The experiment can be described thus: affinity purification with mass spectrometry; IP-MS of Gadd45B-overexpressing Bcpap and K1 cells; primary antibodies and Protein A/G agarose beads; TMT 10-plex labelling.
For experiment [3] the target is unchanged. Kind of experiment: affinity purification with mass spectrometry; anti-Flag agarose immunoprecipitation from TPC-1 and Bcpap cells stably overexpressing Flag-Gadd45B; eluates on SDS-PAGE, silver staining, bands excised, in-gel trypsin digestion, nano-LC-MS/MS. The source holds these as a separate data set.

Results are given in words; binding and its absence hold for the method and conditions named. Binding seen in cells or lysates may run through a third protein. A yes stands for co-enrichment or nearness to the bait. Other partners may have been found. Tags and fused reporters may be left off the sequences shown.

In the case of “MAP3K4, His-tagged (from UniProt Q9Y6R4 1-1608)”, in experiment [1], the binding result was “binds”.

B1: MYC-binding protein (MYCBP) (protein, UniProt Q99417 1-103)
chain: MAHYKAADSKREQFRRYLEKSGVLDTLTKVLVALYEEPEKPNSALDFLKHHLGAATPENPEIELLRLELAEMKEKYEAIVEENKKLKAKLAQYEPPQEEKRAE
B1: the binding entry in experiment [2] and in experiment [3] was “binds” throughout.
